Source: patent US10563220B2, “Compositions and methods for efficient targeting of transgenes” (priority 2015, dated 2020)

Tested on: R1 transgenic cotton plants
Test: Amino-terminal sequencing of DMO from R1 cotton leaf
Conditions: DMO = full processing of the CTP

| Molecule | APG6-DMO processing |
| --- | --- |
| APG6: Arabidopsis thaliana albino and pale green (APG6) chloroplast transit peptide, SEQ ID NO:1, tested linked to DMO or PPO (protein, listed as Arabidopsis thalinana) MATATTTATAAFSGVVSVGTETRRIYSFSHLQPSAAFPAKPSSFKSLKLKQSARLTRRLDHRPFVVRC | DMO |
| Optimized APG6: amino-terminal optimized variant of the APG6 CTP, SEQ ID NO:2 (protein) MASSTTTATAAFSGVVSVGTETRRIYSFSHLQPSAAFPAKPSSFKSLKLKQSARLTRRLDHRPFVVRC | DMO |
